{"source": "patent US8647867B2", "about": "“Cell cultivation method and cell culture” (National University Corportion Okayama University, priority 2005, dated 2014)", "key": {"porcine pancreatic islet": {"test_system": "porcine pancreatic islet", "assay": "Morphological study of cultured porcine pancreatic islet by electron microscope (morphological criteria, points)", "assay_type": "cell-based", "conditions": "porcine pancreatic islets, day 5 of culture", "method": "(§1) As the inspection method of cultured pancreatic islets, a method is mentioned in which the following 4 items as morphological criteria are evaluated at 5 levels (1 to 5 points) (see, literature: Matsumoto S, Qualley S A, Goel S, et al., Effect of the two-layer (University of Wisconsin solution-Perfluorochemical plus 02) method of pancreas preservation on human islet isolation as assessed by Edmonton isolation protocol. Transplantation 2002; 74: 1414).\n(§2) Evaluation is performed at 5 levels of “flat: 1 point”, “approximately flat: 2 points”, “irregularly spherical: 3 points”, “approximately spherical: 4 points”, and “spherical: 5 points”.\n(§3) Evaluation is performed at 5 levels of “irregular: 1 point”, “approximately irregular: 2 points”, “somewhat well-rounded: 3 points”, “approximately well-rounded: 4 points”, and “well-rounded: 5 points”. Among these, “well-rounded: 5 points” is most preferable.\n(§4) Evaluation is performed at 5 levels of “fragmented: 1 point”, “approximately fragmented: 2 points”, “somewhat solid/compact: 3 points”, “approximately solid/compact: 4 points”, and “solid/compact: 5 points”. Among these, “solid/compact: 5 points” is most preferable. […]"}, "human pancreatic islet": {"test_system": "human pancreatic islet", "assay": "Morphological study of cultured human pancreatic islet by electron microscope (morphological criteria, points)", "assay_type": "cell-based", "conditions": "human pancreatic islets, day 5 of culture", "method": "as §1, §2, §3, §4"}}, "note": "Some results were stated once for a whole list of compounds, not compound by compound.", "data": [{"smiles": "CC(=O)N[C@@H](CCCNC(=N)N)C(=O)N[C@@H](C)C(=O)N[C@@H](CC(=O)O)C(=O)N[C@@H](C)C(=O)N[C@@H](CCCNC(=N)N)C(=O)N[C@@H](C)C(=O)N[C@@H](CC(=O)O)C(=O)N[C@@H](C)C(=O)N[C@@H](CCCNC(=N)N)C(=O)N[C@@H](C)C(=O)N[C@@H](CC(=O)O)C(=O)N[C@@H](C)C(=O)N[C@@H](CCCNC(=N)N)C(=O)N[C@@H](C)C(=O)N[C@@H](CC(=O)O)C(=O)N[C@@H](C)C(N)=O", "note": "[Group A, Ac-(RADA)4-CONH2]", "values": [{"measurement": "pancreatic islet morphology: 4. diameter", "setting": "porcine pancreatic islet", "value": "3 (125 to 175 μm for individual cultured pancreatic islets: 3 points)"}, {"measurement": "pancreatic islet morphology: 2. border shape", "setting": "human pancreatic islet", "value": "3 (somewhat well-rounded: 3 points)"}, {"measurement": "pancreatic islet morphology: 4. diameter", "setting": "human pancreatic islet", "value": "3 (125 to 175 μm for individual cultured pancreatic islets: 3 points)"}]}]}
